Patent US7704994B2, “Benzazepine derivatives for the treatment of neurological disorders” (Glaxo Group Limited, priority 2002, dated 2010)
Some results were stated once for a whole list of compounds, not compound by compound. Some compounds share one range, which may span the group rather than tell each member.

Amino acid sequences for entries named in this document (tags omitted). A change or cut given only in a name is not applied to a line headed by its entry.
UniProt Q9Y5N1: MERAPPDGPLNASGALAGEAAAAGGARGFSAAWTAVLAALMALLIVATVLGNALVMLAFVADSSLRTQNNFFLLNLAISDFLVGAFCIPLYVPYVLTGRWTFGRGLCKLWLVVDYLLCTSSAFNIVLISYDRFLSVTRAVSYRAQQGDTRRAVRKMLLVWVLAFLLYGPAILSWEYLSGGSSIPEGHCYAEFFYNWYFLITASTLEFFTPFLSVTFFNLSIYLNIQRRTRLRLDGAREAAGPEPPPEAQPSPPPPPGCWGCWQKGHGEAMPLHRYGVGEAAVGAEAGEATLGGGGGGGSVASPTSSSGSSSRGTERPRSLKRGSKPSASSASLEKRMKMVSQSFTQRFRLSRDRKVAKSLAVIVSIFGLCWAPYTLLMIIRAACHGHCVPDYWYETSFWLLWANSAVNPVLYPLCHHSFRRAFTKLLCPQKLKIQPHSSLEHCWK

target: T1, human histamine H3 receptor (Homo sapiens, UniProt Q9Y5N1); experiment: Histamine H3 functional antagonist assay; format: biochemical; details: membranes of CHO K1 cells expressing human histamine H3; [35S]GTPγS SPA; histamine 0.3 μM
T1 construct: expressed in transfected cells; host or cells: CHO K1 cells carrying pSwitch, transfected with pGeneH3 and induced with mifepristone; membranes of clone 3H3

Q: For `CC1CCC(=O)N1c1ccc(Oc2ccc3c(c2)CCN(C2CCC2)CC3)nc1` (stereo not shown) [Example 250, 1-{6-[(3-Cyclobutyl-2,3,4,5-tetrahydro-1H-3-benzazepin-7-yl)oxy]-3-pyridinyl}-5-methyl-2-pyrrolidinone], which “antagonism (pKb)” value is on record?
A: 6.5-10.5 pKb

Q: How did the “antagonism (pKb)” value turn out when `CN1CCN(c2ccc(Oc3ccc4c(c3)CCN(C3CCC3)CC4)nc2)C1=O` [Example 251, 1-{6-[(3-Cyclobutyl-2,3,4,5-tetrahydro-1H-3-benzazepin-7-yl)oxy]-3-pyridinyl}-3-methyl-2-imidazolidine] was run?
A: 6.5-10.5 pKb

Q: With `O=C1C[C@@H](O)CN1c1ccc(Oc2ccc3c(c2)CCN(C2CCC2)CC3)nc1` [Example 252, (4R)-1-{6-[(3-Cyclobutyl-2,3,4,5-tetrahydro-1H-3-benzazepin-7-yl)oxy]-3-pyridinyl}-4-hydroxy-2-pyrrolidinone] as the compound, how does the “antagonism (pKb)” value read?
A: 6.5-10.5 pKb

Q: With `CNC(=O)c1ccc(Oc2ccc3c(c2)CCN(C2CCC(C)C2)CC3)nc1` (stereo not shown) [Example 253, N-Methyl-6-{[3-(3-methylcyclopentyl)-2,3,4,5-tetrahydro-1H-3-benzazepin-7-yl]oxy}-3-pyridinecarboxamide] as the compound, how does the “antagonism (pKb)” value read?
A: 6.5-10.5 pKb

Q: How did the “antagonism (pKb)” value turn out when `CNC(=O)c1cnc(Oc2ccc3c(c2)CCN(C2CCCC2)CC3)cn1` [Example 254, 5-[(3-Cyclopentyl-2,3,4,5-tetrahydro-1H-3-benzazepin-7-yl)oxy]-N-methyl-2-pyrazinecarboxamide] was run?
A: 6.5-10.5 pKb

Q: How did the “antagonism (pKb)” value turn out when `CNC(=O)c1cnc(Oc2ccc3c(c2)CCN(C2CCC(C)C2)CC3)cn1` (stereo not shown) [Example 255, N-Methyl-5-{[3-(3-methylcyclopentyl)-2,3,4,5-tetrahydro-1H-3-benzazepin-7-yl]oxy}-2-pyrazinecarboxamide] was run?
A: 6.5-10.5 pKb

Q: How did the “antagonism (pKb)” value turn out when `O=C1CCCN1c1nccnc1Oc1ccc2c(c1)CCN(C1CCC1)CC2` [Example 256, 1-{3-[(3-Cyclobutyl-2,3,4,5-tetrahydro-1H-3-benzazepin-7-yl)oxy]-2-pyrazinyl}-2-pyrrolidinone] was run?
A: 6.5-10.5 pKb

Q: For `O=C1CCCN1c1cnc(Oc2ccc3c(c2)CCN(C2CCC2)CC3)cn1` [Example 258, 1-{5-[(3-Cyclobutyl-2,3,4,5-tetrahydro-1H-3-benzazepin-7-yl)oxy]-2-pyrazinyl}-2-pyrrolidinone], which “antagonism (pKb)” value is on record?
A: 6.5-10.5 pKb

Q: With `O=C1OCCN1c1cnc(Oc2ccc3c(c2)CCN(C2CCC2)CC3)cn1` [Example 260, 3-{5-[(3-Cyclobutyl-2,3,4,5-tetrahydro-1H-3-benzazepin-7-yl)oxy]-2-pyrazinyl}-1,3-oxazolidin-2-one] as the compound, how does the “antagonism (pKb)” value read?
A: 6.5-10.5 pKb

Q: For `O=S1(=O)CCCN1c1ccc(Oc2ccc3c(c2)CCN(C2CCC2)CC3)nc1` [Example 261, 3-Cyclobutyl-7-[5-(1,1-dioxo-2-isothiazolidin-2-yl)-pyridin-2-yloxy]-2,3,4,5-tetrahydro-1H-3-benzazepine], which “antagonism (pKb)” value is on record?
A: 6.5-10.5 pKb

Q: `O=C1NCCN1c1ccc(Oc2ccc3c(c2)CCN(C2CCC2)CC3)nc1` [Example 262, 1-{6-[(3-Cyclobutyl-2,3,4,5-tetrahydro-1H-3-benzazepin-7-yl)oxy]-3-pyridinyl}-2-imidazolidinone] was tested. Which “antagonism (pKb)” value did it give?
A: 6.5-10.5 pKb

Q: How did the “antagonism (pKb)” value turn out when `NC(=O)c1cnc(Oc2ccc3c(c2)CCN(C2CCC2)CC3)cn1` [Example 263, 5-[(3-Cyclobutyl-2,3,4,5-tetrahydro-1H-3-benzazepin-7-yl)oxy]-2-pyrazinecarboxamide] was run?
A: 6.5-10.5 pKb

Q: How did the “antagonism (pKb)” value turn out when `CNC(=O)c1ccc(Oc2ccc3c(c2)CCN(C2CCC2)CC3)c(OC)c1` [Example 264, 4-[(3-Cyclobutyl-2,3,4,5-tetrahydro-1H-3-benzazepin-7-yl)oxy]-N-methyl-3-(methyloxy)benzamide] was run?
A: 6.5-10.5 pKb

Q: For `N#Cc1ccccc1Oc1ccc2c(c1)CCN(C1CCC1)CC2` [Example 265, 2-[(3-Cyclobutyl-2,3,4,5-tetrahydro-1H-3-benzazepin-7-yl)oxy]benzonitrile], which “antagonism (pKb)” value is on record?
A: 6.5-10.5 pKb

Q: How did the “antagonism (pKb)” value turn out when `CNC(=O)c1ccc(OC)c(Oc2ccc3c(c2)CCN(C2CCC2)CC3)c1` [Example 266, 3-[(3-Cyclobutyl-2,3,4,5-tetrahydro-1H-3-benzazepin-7-yl)oxy]-N-methyl-4-(methyloxy)benzamide] was run?
A: 6.5-10.5 pKb

Q: With `CNC(=O)c1ccc(Oc2ccc3c(c2)CCN(C2CCC2)CC3)c(Cl)c1` [Example 267, 3-Chloro-4-[(3-cyclobutyl-2,3,4,5-tetrahydro-1H-3-benzazepin-7-yl)oxy]-N-methylbenzamide] as the compound, how does the “antagonism (pKb)” value read?
A: 6.5-10.5 pKb

Q: `CNC(=O)c1ccc(Oc2ccc3c(c2)CCN(C2CCC2)CC3)c(C)c1` [Example 268, 4-[(3-Cyclobutyl-2,3,4,5-tetrahydro-1H-3-benzazepin-7-yl)oxy]-N,3-dimethylbenzamide] was tested. Which “antagonism (pKb)” value did it give?
A: 6.5-10.5 pKb

Q: Which “antagonism (pKb)” value does the source give for `N#Cc1cc2c(cc1OCc1ccccc1)CCN(C1CCC1)CC2` [Example 269, 3-Cyclobutyl-8-[(phenylmethyl)oxy]-2,3,4,5-tetrahydro-1H-3-benzazepine-7-carbonitrile] here?
A: 6.5-10.5 pKb

Q: With `Fc1ccccc1Oc1ccc2c(c1)CCN(C1CCC1)CC2` [Example 270, 3-Cyclobutyl-7-[(2-fluorophenyl)oxy]-2,3,4,5-tetrahydro-1H-3-benzazepine] as the compound, how does the “antagonism (pKb)” value read?
A: 6.5-10.5 pKb

Q: With `CNC(=O)c1ccc(Oc2ccc3c(c2)CCN(C2CCC2)CC3)c(F)c1` [Example 273, 4-[(3-Cyclobutyl-2,3,4,5-tetrahydro-1H-3-benzazepin-7-yl)oxy]-3-fluoro-N-methylbenzamide] as the compound, how does the “antagonism (pKb)” value read?
A: 6.5-10.5 pKb

Q: How did the “antagonism (pKb)” value turn out when `O=C1CCCN1c1ccc(Oc2ccc3c(c2)CCN(C2CCC2)CC3)c(F)c1` [Example 275, 1-{4-[(3-Cyclobutyl-2,3,4,5-tetrahydro-1H-3-benzazepin-7-yl)oxy]-3-fluorophenyl}-2-pyrrolidinone] was run?
A: 6.5-10.5 pKb

Q: How did the “antagonism (pKb)” value turn out when `CC(=O)Nc1ccc(Oc2ccc3c(c2)CCN(C2CCC2)CC3)c(F)c1` [Example 276, N-{4-[(3-Cyclobutyl-2,3,4,5-tetrahydro-1H-3-benzazepin-7-yl)oxy]-3-fluorophenyl}acetamide] was run?
A: 6.5-10.5 pKb

Q: `O=C(c1cccc(Oc2ccc3c(c2)CCN(C2CCC2)CC3)c1)N1CCCC1` [Example 277, 1-[3-(3-Cyclobutyl-2,3,4,5-tetrahydro-1H-benzo[d]azepin-7-yloxy)-phenyl]-1-pyrrolidin-1-yl-methanone] was tested. Which “antagonism (pKb)” value did it give?
A: 6.5-10.5 pKb

Q: For `O=C(NC1CCOCC1)c1ccc(Oc2ccc3c(c2)CCN(C2CCC2)CC3)cn1` [Example 278, 5-[(3-Cyclobutyl-2,3,4,5-tetrahydro-1H-3-benzazepin-7-yl)oxy]-N-(tetrahydro-2H-pyran-4-yl)-2-pyridinecarboxamide], which “antagonism (pKb)” value is on record?
A: 6.5-10.5 pKb

Q: `CNC(=O)c1ccc(Oc2ccc3c(c2)CCN(C2CCC2)CC3)c(C#N)c1` [Example 279, 3-Cyano-4-[(3-cyclobutyl-2,3,4,5-tetrahydro-1H-3-benzazepin-7-yl)oxy]-N-methylbenzamide] was tested. Which “antagonism (pKb)” value did it give?
A: 6.5-10.5 pKb

Q: For `O=C(c1ccc(Oc2ccc3c(c2)CCN(C2CCC2)CC3)nn1)N1CCOCC1` [Example 280, 3-Cyclobutyl-7-{[6-(4-morpholinylcarbonyl)-3-pyridazinyl]oxy}-2,3,4,5-tetrahydro-1H-3-benzazepine], which “antagonism (pKb)” value is on record?
A: 6.5-10.5 pKb

Q: `CNC(=O)c1ccc(Oc2ccc3c(c2)CCN(C2CCC2)CC3)nn1` [Example 281, 6-[(3-Cyclobutyl-2,3,4,5-tetrahydro-1H-3-benzazepin-7-yl)oxy]-N-methyl-3-pyridazinecarboxamide] was tested. Which “antagonism (pKb)” value did it give?
A: 6.5-10.5 pKb

Q: Which “antagonism (pKb)” value does the source give for `CCN(C)C(=O)c1ccc(Oc2ccc3c(c2)CCN(C2CCC2)CC3)nn1` [Example 282, 6-[(3-Cyclobutyl-2,3,4,5-tetrahydro-1H-3-benzazepin-7-yl)oxy]-N-ethyl-N-methyl-3-pyridazinecarboxamide] here?
A: 6.5-10.5 pKb

Q: For `O=C(CCCOc1ccc2c(c1)CCN(C1CCC1)CC2)N1CCOCC1` [Example 283, 3-Cyclobutyl-7-{[4-(4-morpholinyl)-4-oxobutyl]oxy}-2,3,4,5-tetrahydro-1H-3-benzazepine], which “antagonism (pKb)” value is on record?
A: 6.5-10.5 pKb

Q: For `O=C(c1ccc(N2CCOCC2)cc1)N1CCC(Oc2ccc3c(c2)CCN(C2CCC2)CC3)CC1` [Example 284, 3-Cyclobutyl-7-[(1-{[4-(4-morpholinyl)phenyl]carbonyl}-4-piperidinyl)oxy]-2,3,4,5-tetrahydro-1H-3-benzazepine], which “antagonism (pKb)” value is on record?
A: 6.5-10.5 pKb

Q: With `O=C(CC1CC1)N1CCC(Oc2ccc3c(c2)CCN(C2CCC2)CC3)CC1` [Example 285, 3-Cyclobutyl-7-{[1-(cyclopropylacetyl)-4-piperidinyl]oxy}-2,3,4,5-tetrahydro-1H-3-benzazepine] as the compound, how does the “antagonism (pKb)” value read?
A: 6.5-10.5 pKb

Q: For `C[C@@H]1CN(C(=O)N2CCC(Oc3ccc4c(c3)CCN(C3CCC3)CC4)CC2)C[C@H](C)O1` [Example 286, 3-Cyclobutyl-7-[(1-{[(2R,6S)-2,6-dimethyl-4-morpholinyl]carbonyl}-4-piperidinyl)oxy]-2,3,4,5-tetrahydro-1H-3-benzazepine], which “antagonism (pKb)” value is on record?
A: 6.5-10.5 pKb

Q: For `O=C([C@H]1CC[C@H](Oc2ccc3c(c2)CCN(C2CCC2)CC3)CC1)N1CCOCC1` [Example 287, 3-Cyclobutyl-7-{[trans-4-(4-morpholinylcarbonyl)cyclohexyl]oxy}-2,3,4,5-tetrahydro-1H-3-benzazepine], which “antagonism (pKb)” value is on record?
A: 6.5-10.5 pKb

Q: For `c1cc2c(cc1Oc1cncc(N3CCOCC3)n1)CCN(C1CCC1)CC2` [Example 288, 3-Cyclobutyl-7-{[6-(4-morpholinyl)-2-pyrazinyl]oxy}-2,3,4,5-tetrahydro-1H-3-benzazepine], which “antagonism (pKb)” value is on record?
A: 6.5-10.5 pKb
